Reference: PubChem BioAssay AID1347423 (Functional Genomics Laboratory (NCATS/FGL), 2020)
Out of some 52,000 sequences screened, about 210 (0.4%) were called active.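 The calls were made as follows: active = gene whose silencing raises cell survival under the drug, median off-target-corrected z-score across its silencing RNAs 2 or more; inactive = the rest.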 The list shows a part of the results.

Assay: Resistance to Poly (ADP-Ribose) Polymerase inhibitor: Gene Identification via Genome-wide siRNA Screen
Conditions: mouse BRCA2 R2336H ES cells, olaparib, CellTiter-Glo viability; hits give high values
How it was run: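 Mouse BRCA2 R2336H ES cells were reverse-transfected with siRNA (20 nM final), treated at 48 h with 500 nM olaparib, and read by CellTiter-Glo after 72 h. Scores: MAD-based z per siRNA, median per gene, seed off-target correction.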

Sequence | z-score
GGUACAGAGCAAUAAGCAUTT against D10Wsu93e | inactive: 0.0324
GGAAAUGAAGGCAGCAAUGTT against Olfr1311 | inactive: 0.244
GCCUUGUCUAUAGGACUGUTT against Grm6 | inactive: -1.11
GCAACAAGUGUUGGACUCATT against Tob2 | inactive: -2.62
CGCAGGUUUGAGUACAAGCTT against BC020188 | inactive: -0.296
GCUUCCGAAAUCUGCCAAATT against Ii | inactive: 1.61
GGUCAUACUCUAAUCGGACTT against Ctss | inactive: -1.35
GGACAUGCAAGACAUGGAUTT against 3200002M19Rik | inactive: -0.223
GCCCACGAGCCUCAUGGACTT against Sts | inactive: 0.549
GCAAACACUUGAAUGUUCATT against Cacnb4 | inactive: 0.0867
GCAUCUGUGUAGAAGUGGATT against Thrsp | inactive: 0.473
GCUAUGAGCUAACAAGUCUTT against 5430438H03Rik | inactive: 0.683
GGAGAAGAAAACAUCAAGUTT against Hrh3 | inactive: 0.663
GGGAAAUCCUUUCUCAGUATT against AI313915 | inactive: -1.12
GGCAGUGUUUGGCAAAUAUTT against Rbmx | inactive: 1.75
CCUGUGAAUCACCCAAUCATT against C030018G13Rik | inactive: -0.365
CCUUUGGAAACAACCACUUTT against Ugt1a6 | inactive: -0.338
GCCCAGUACAACCCUCCUATT against E330023O18 | inactive: -1.09
GGGUUGUAUGGCUCAAAUATT against Olfr728 | inactive: 0.247
CCUUAUGUGCCCUUUCAUCTT against LOC245128 | inactive: 0.264
GGACGUGGUGUAAAAUAGCTT against Cdkn2b | inactive: 0.389
GGCCAUCUAAAAAUAGUAATT against A330015D16Rik | inactive: -0.42

Sequence | z-score
GGACAAAGAAAAAGAUUCCTT against Stxbp6 | inactive: 0.115
GGUCUUCUGGAGUUUGUGGTT against Glrx1 | inactive: 1.84
GGACUGAUGCAUUCUUUGCTT against Rg9mtd2 | inactive: -1.07
GGUCCCUGCUUUGAUUCGATT against Olfr90 | inactive: 1.72
GGAAACAUGACAGCUGCUCTT against Arpc5 | inactive: -0.06
GGAAGGAGUUCGAAGUCAUTT against Ralgds | inactive: 2.77
GGGCGAAGGGAUUACUAUUTT against Rhpn1 | inactive: -0.094
GAACUUUAUCACCUGCUUCTT against C030006K11Rik | inactive: 0.528
GGUGAAUUUGAUUGAUGAGTT against Ccnl2 | inactive: 0.657
CGCACUCUUACUCACCAGATT against 2810439K08Rik | inactive: -0.418
GGCUCAAGGACAGAUGAUGTT against Tra1 | inactive: -0.94
GGUUAUCCUUCCCAGAAUUTT against 1110059E24Rik | inactive: 0.0221
GGUCAUUUAUGAGAGGGCUTT against Thap11 | inactive: -1.48
GGAAGCUGUUUCAAACAAATT against C730031G17 | inactive: -1.83
GGAGUAUGCCCAUUCCAUCTT against Grm8 | inactive: 0.144
GCGACUACUUAGACACUUUTT against 4732481H14Rik | inactive: -1.94
GGUACAGCUUAUGGAUUAATT against Pdgfra | inactive: 1.38
GGAUUUGUGCCCUCCUUUCTT against Ucp3 | inactive: 0.541
GGGAACUUCCUUGAGAAGATT against 4933434I20Rik | inactive: -0.363
GCAGCUCCAUACCAAUUCCTT against 4921501E09Rik | inactive: 0.683
CCCAAGCAAUUACAGUACUTT against Olfr42 | inactive: 0.285
GGCUGUUCAAAGUGACCCUTT against Hbp1 | inactive: -0.48

Sequence | z-score
CCUACUGUUUGAGUCCCAGTT against 2610014H22Rik | inactive: 1.96
GGGUUUCUGCAUUGACAUUTT against Grin2d | inactive: -0.221
GCCAGAUCUUUAUAUCCCGTT against Gdi3 | inactive: -0.413
GCCUUUAUAGUCUUAAGCATT against 2810475A17Rik | inactive: -1.55
CCUUCAGAUAUCUUAGAAATT against D5Wsu178e | inactive: -0.426
GGAGUUCACGGAUCUUGAGTT against BC024868 | inactive: -2.15
GGCUGUUCGUACUAUAGCUTT against Gpr119 | inactive: -0.649
GCAUAAUGGAUGGAAAGUCTT against 4930485D02Rik | inactive: -0.211
GCAACAAAUUUGAAUCAGATT against Chic2 | inactive: 0.349
GGUAAAUUUGACUACCUGGTT against Fbxo36 | inactive: 0.756
CCGACACAAGAUGCUCAGUTT against Tmem9 | inactive: -0.249
GGAAGACAUUCACGAUUGUTT against Depdc6 | inactive: -1.94
CCUAUGGUAGAUAUCUGUGTT against Chc1l | inactive: -0.76
GGAAGAAGAGCUCUUUAAATT against Acate2 | inactive: 0.108
CGCACUUUGGCUUGUAAUUTT against Smad6 | inactive: 0.642
CGACCGGUGUCUUGCUUUUTT against Hint1 | inactive: -0.446
GGAGCUCAACAAGUUGCUUTT against Hist1h2aa | inactive: -0.0931
GGGAAAUCCGAUAUUCCCUTT against Lats2 | inactive: 0.908
CCUAUGGCAUCGUGUAUCGTT against Cdk10 | inactive: -0.963
GGAACAGUUUCUAAAACAGTT against Mapkbp1 | inactive: 0.926
GGCUAAAUGCCGAUGUACUTT against 4432404J10Rik | inactive: 0.444
GGUGUAUGGCUUCUGUUGATT against Rab35 | inactive: 1.19

Quoted from the listing:
z-score, GGUGUAUGGCUUCUGUUGATT against Rab35 reads inactive: 1.19
z-score, GGAAGAAGAGCUCUUUAAATT against Acate2 reads inactive: 0.108
z-score, GGCUGUUCGUACUAUAGCUTT against Gpr119 reads inactive: -0.649
